This is an account of results in doi:10.1101/2023.01.18.523235.

Chains of the proteins cited; added tags and fusions are not shown.
UniProt Q96RY7: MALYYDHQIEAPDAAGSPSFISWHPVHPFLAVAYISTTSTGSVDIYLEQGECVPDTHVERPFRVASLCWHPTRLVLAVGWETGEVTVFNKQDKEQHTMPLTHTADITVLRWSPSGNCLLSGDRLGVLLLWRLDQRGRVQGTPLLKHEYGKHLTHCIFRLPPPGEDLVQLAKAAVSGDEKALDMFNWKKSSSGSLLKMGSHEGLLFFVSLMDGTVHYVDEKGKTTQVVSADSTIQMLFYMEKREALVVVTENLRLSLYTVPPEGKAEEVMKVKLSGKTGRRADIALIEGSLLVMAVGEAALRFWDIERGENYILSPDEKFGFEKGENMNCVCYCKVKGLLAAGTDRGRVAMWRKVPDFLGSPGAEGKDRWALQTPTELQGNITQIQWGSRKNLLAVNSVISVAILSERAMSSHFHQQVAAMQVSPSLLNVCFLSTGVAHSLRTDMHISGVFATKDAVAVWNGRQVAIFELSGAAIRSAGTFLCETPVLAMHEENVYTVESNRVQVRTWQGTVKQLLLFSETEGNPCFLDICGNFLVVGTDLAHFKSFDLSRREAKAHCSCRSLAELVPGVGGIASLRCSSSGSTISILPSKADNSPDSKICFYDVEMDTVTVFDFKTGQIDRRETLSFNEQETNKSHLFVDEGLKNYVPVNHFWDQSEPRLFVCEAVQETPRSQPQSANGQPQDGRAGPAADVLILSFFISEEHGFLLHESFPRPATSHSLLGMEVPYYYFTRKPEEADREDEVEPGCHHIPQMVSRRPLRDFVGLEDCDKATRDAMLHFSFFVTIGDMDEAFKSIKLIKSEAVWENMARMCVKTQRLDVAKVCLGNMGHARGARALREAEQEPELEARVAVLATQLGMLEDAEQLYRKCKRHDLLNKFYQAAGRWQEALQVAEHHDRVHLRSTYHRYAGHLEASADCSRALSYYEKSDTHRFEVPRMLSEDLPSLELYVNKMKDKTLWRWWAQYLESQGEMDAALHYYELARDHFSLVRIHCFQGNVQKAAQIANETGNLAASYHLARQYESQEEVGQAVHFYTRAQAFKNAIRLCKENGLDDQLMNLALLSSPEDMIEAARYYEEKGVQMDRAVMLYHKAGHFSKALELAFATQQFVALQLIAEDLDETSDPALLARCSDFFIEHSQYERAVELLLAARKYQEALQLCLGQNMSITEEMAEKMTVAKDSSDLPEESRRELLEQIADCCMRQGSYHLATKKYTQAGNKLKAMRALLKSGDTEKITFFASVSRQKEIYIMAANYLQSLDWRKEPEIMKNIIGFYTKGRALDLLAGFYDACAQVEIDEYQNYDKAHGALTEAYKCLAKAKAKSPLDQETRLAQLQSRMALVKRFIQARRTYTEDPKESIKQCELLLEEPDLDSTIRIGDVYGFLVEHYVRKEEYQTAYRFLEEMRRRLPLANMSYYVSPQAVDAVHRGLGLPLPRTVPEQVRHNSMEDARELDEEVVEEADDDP
UniProt Q9Y266: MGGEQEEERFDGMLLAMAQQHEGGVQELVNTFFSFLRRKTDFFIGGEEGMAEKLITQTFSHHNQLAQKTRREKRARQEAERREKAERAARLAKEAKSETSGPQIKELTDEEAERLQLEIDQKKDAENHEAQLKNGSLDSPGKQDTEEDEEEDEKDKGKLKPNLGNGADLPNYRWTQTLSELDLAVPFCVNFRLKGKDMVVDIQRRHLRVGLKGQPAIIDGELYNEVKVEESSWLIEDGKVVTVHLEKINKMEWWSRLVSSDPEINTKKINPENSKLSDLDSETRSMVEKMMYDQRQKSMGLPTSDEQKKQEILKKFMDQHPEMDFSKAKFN
UniProt P09884: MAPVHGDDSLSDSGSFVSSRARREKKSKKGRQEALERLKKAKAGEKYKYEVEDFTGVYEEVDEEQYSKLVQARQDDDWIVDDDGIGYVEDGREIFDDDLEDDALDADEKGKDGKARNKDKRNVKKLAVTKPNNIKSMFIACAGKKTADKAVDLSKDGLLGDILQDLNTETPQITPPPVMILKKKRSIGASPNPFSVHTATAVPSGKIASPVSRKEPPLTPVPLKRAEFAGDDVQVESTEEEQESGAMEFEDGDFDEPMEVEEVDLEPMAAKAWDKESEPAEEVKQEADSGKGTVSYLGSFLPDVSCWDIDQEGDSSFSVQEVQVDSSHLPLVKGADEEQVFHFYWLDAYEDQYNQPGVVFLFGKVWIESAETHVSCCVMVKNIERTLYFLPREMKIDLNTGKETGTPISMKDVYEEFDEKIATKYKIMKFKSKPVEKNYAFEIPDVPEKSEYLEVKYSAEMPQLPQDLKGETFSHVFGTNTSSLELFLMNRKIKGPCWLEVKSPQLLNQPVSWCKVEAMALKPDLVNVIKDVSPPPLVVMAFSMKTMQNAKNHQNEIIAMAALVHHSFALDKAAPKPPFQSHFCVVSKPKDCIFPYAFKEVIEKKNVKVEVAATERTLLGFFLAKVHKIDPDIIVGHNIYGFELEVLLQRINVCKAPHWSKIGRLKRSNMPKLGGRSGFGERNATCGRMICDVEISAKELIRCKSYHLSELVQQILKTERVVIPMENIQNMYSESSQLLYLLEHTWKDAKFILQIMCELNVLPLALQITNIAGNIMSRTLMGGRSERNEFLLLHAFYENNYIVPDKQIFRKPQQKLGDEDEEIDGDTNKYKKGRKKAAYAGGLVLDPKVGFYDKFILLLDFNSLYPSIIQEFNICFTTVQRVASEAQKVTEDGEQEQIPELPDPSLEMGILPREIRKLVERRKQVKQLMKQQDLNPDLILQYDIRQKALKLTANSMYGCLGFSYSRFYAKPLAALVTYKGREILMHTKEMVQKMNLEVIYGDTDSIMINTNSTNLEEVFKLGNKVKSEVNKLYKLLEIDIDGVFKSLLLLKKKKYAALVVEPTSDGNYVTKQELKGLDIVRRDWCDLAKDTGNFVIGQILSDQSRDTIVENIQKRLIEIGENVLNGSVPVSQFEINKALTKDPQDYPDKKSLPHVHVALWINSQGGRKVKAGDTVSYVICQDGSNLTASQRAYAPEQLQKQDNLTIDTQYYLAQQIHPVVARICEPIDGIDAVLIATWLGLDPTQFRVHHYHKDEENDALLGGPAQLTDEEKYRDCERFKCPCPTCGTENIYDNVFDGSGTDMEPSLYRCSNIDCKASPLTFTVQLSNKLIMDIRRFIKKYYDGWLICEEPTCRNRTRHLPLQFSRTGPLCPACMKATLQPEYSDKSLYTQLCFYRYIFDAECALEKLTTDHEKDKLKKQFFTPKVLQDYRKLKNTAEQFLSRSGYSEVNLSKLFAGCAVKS

Results are given in words; binding and its absence hold for the method and conditions named. Binding seen in cells or lysates may run through a third protein. These calls come from enrichment with a bait or labelling near it, and not all partners need be listed.

B1: IFT43 (protein, UniProt Q96FT9 1-208)
chain: MEDLLDLDEELRYSLATSRAKMGRRAQQESAQAENHLNGKNSSLTLTGETSSAKLPRCRQGGWAGDSVKASKFRRKASEEIEDFRLRPQSLNGSDYGGDIPIIPDLEEVQEEDFVLQVAAPPSIQIKRVMTYRDLDNDLMKYSAIQTLDGEIDLKLLTKVLAPEHEVREDDVGWDWDHLFTEVSSEVLTEWDPLQTEKEDPAGQARHT
B2: TULP3 (endogenous) (protein, UniProt O75386 1-442)
chain: MEASRCRLSPSGDSVFHEEMMKMRQAKLDYQRLLLEKRQRKKRLEPFMVQPNPEARLRRAKPRASDEQTPLVNCHTPHSNVILHGIDGPAAVLKPDEVHAPSVSSSVVEEDAENTVDTASKPGLQERLQKHDISESVNFDEETDGISQSACLERPNSASSQNSTDTGTSGSATAAQPADNLLGDIDDLEDFVYSPAPQGVTVRCRIIRDKRGMDRGLFPTYYMYLEKEENQKIFLLAARKRKKSKTANYLISIDPVDLSREGESYVGKLRSNLMGTKFTVYDRGICPMKGRGLVGAAHTRQELAAISYETNVLGFKGPRKMSVIIPGMTLNHKQIPYQPQNNHDSLLSRWQNRTMENLVELHNKAPVWNSDTQSYVLNFRGRVTQASVKNFQIVHKNDPDYIVMQFGRVADDVFTLDYNYPLCAVQAFGIGLSSFDSKLACE
B3: IFT121 (protein, UniProt Q9P2L0 1-1181)
chain: MFFYLSKKISIPNNVKLQCVSWNKEQGFIACGGEDGLLKVLKLETQTDDAKLRGLAAPSNLSMNQTLEGHSGSVQVVTWNEQYQKLTTSDENGLIIVWMLYKGSWIEEMINNRNKSVVRSMSWNADGQKICIVYEDGAVIVGSVDGNRIWGKDLKGIQLSHVTWSADSKVLLFGMANGEIHIYDNQGNFMIKMKLSCLVNVTGAISIAGIHWYHGTEGYVEPDCPCLAVCFDNGRCQIMRHENDQNPVLIDTGMYVVGIQWNHMGSVLAVAGFQKAAMQDKDVNIVQFYTPFGEHLGTLKVPGKEISALSWEGGGLKIALAVDSFIYFANIRPNYKWGYCSNTVVYAYTRPDRPEYCVVFWDTKNNEKYVKYVKGLISITTCGDFCILATKADENHPQEENEMETFGATFVLVLCNSIGTPLDPKYIDIVPLFVAMTKTHVIAASKEAFYTWQYRVAKKLTALEINQITRSRKEGRERIYHVDDTPSGSMDGVLDYSKTIQGTRDPICAITASDKILIVGRESGTIQRYSLPNVGLIQKYSLNCRAYQLSLNCNSSRLAIIDISGVLTFFDLDARVTDSTGQQVVGELLKLERRDVWDMKWAKDNPDLFAMMEKTRMYVFRNLDPEEPIQTSGYICNFEDLEIKSVLLDEILKDPEHPNKDYLINFEIRSLRDSRALIEKVGIKDASQFIEDNPHPRLWRLLAEAALQKLDLYTAEQAFVRCKDYQGIKFVKRLGKLLSESMKQAEVVGYFGRFEEAERTYLEMDRRDLAIGLRLKLGDWFRVLQLLKTGSGDADDSLLEQANNAIGDYFADRQKWLNAVQYYVQGRNQERLAECYYMLEDYEGLENLAISLPENHKLLPEIAQMFVRVGMCEQAVTAFLKCSQPKAAVDTCVHLNQWNKAVELAKNHSMKEIGSLLARYASHLLEKNKTLDAIELYRKANYFFDAAKLMFKIADEEAKKGSKPLRVKKLYVLSALLIEQYHEQMKNAQRGKVKGKSSEATSALAGLLEEEVLSTTDRFTDNAWRGAEAYHFFILAQRQLYEGCVDTALKTALHLKDYEDIIPPVEIYSLLALCACASRAFGTCSKAFIKLKSLETLSSEQKQQYEDLALEIFTKHTSKDNRKPELDSLMEGGEGKLPTCVATGSPITEYQFWMCSVCKHGVLAQEISHYSFCPLCHSPVG
B4: SMG9 (protein, UniProt Q9H0W8 1-520)
chain: MSESGHSQPGLYGIERRRRWKEPGSGGPQNLSGPGGRERDYIAPWERERRDASEETSTSVMQKTPIILSKPPAERSKQPPPPTAPAAPPAPAPLEKPIVLMKPREEGKGPVAVTGASTPEGTAPPPPAAPAPPKGEKEGQRPTQPVYQIQNRGMGTAAPAAMDPVVGQAKLLPPERMKHSIKLVDDQMNWCDSAIEYLLDQTDVLVVGVLGLQGTGKSMVMSLLSANTPEEDQRTYVFRAQSAEMKERGGNQTSGIDFFITQERIVFLDTQPILSPSILDHLINNDRKLPPEYNLPHTYVEMQSLQIAAFLFTVCHVVIVVQDWFTDLSLYRFLQTAEMVKPSTPSPSHESSSSSGSDEGTEYYPHLVFLQNKARREDFCPRKLRQMHLMIDQLMAHSHLRYKGTLSMLQCNVFPGLPPDFLDSEVNLFLVPFMDSEAESENPPRAGPGSSPLFSLLPGYRGHPSFQSLVSKLRSQVMSMARPQLSHTILTEKNWFHYAARIWDGVRKSSALAEYSRLLA
B5: SPAG7 (protein, UniProt O75391 1-227)
chain: MADLLGSILSSMEKPPSLGDQETRRKAREQAARLKKLQEQEKQQKVEFRKRMEKEVSDFIQDSGQIKKKFQPMNKIERSILHDVVEVAGLTSFSFGEDDDCRYVMIFKKEFAPSDEELDSYRRGEEWDPQKAEEKRKLKELAQRQEEEAAQQGPVVVSPASDYKDKYSHLIGKGAAKDAAHMLQANKTYGCVPVANKRDTRSIEEAMNEIRAKKRLRQSGEELPPTS
B6: SYNJ2 (protein, UniProt O15056 1-1496)
chain: MALSKGLRLLGRLGAEGDCSVLLEARGRDDCLLFEAGTVATLAPEEKEVIKGQYGKLTDAYGCLGELRLKSGGTSLSFLVLVTGCTSVGRIPDAEIYKITATDFYPLQEEAKEEERLIALKKILSSGVFYFSWPNDGSRFDLTVRTQKQGDDSSEWGNSFFWNQLLHVPLRQHQVSCCDWLLKIICGVVTIRTVYASHKQAKACLVSRVSCERTGTRFHTRGVNDDGHVSNFVETEQMIYMDDGVSSFVQIRGSVPLFWEQPGLQVGSHHLRLHRGLEANAPAFDRHMVLLKEQYGQQVVVNLLGSRGGEEVLNRAFKKLLWASCHAGDTPMINFDFHQFAKGGKLEKLETLLRPQLKLHWEDFDVFTKGENVSPRFQKGTLRMNCLDCLDRTNTVQSFIALEVLHLQLKTLGLSSKPIVDRFVESFKAMWSLNGHSLSKVFTGSRALEGKAKVGKLKDGARSMSRTIQSNFFDGVKQEAIKLLLVGDVYGEEVADKGGMLLDSTALLVTPRILKAMTERQSEFTNFKRIRIAMGTWNVNGGKQFRSNVLRTAELTDWLLDSPQLSGATDSQDDSSPADIFAVGFEEMVELSAGNIVNASTTNKKMWGEQLQKAISRSHRYILLTSAQLVGVCLYIFVRPYHVPFIRDVAIDTVKTGMGGKAGNKGAVGIRFQFHSTSFCFICSHLTAGQSQVKERNEDYKEITQKLCFPMGRNVFSHDYVFWCGDFNYRIDLTYEEVFYFVKRQDWKKLLEFDQLQLQKSSGKIFKDFHEGAINFGPTYKYDVGSAAYDTSDKCRTPAWTDRVLWWRKKHPFDKTAGELNLLDSDLDVDTKVRHTWSPGALQYYGRAELQASDHRPVLAIVEVEVQEVDVGARERVFQEVSSFQGPLDATVVVNLQSPTLEEKNEFPEDLRTELMQTLGSYGTIVLVRINQGQMLVTFADSHSALSVLDVDGMKVKGRAVKIRPKTKDWLKGLREEIIRKRDSMAPVSPTANSCLLEENFDFTSLDYESEGDILEDDEDYLVDEFNQPGVSDSELGGDDLSDVPGPTALAPPSKSPALTKKKQHPTYKDDADLVELKRELEAVGEFRHRSPSRSLSVPNRPRPPQPPQRPPPPTGLMVKKSASDASISSGTHGQYSILQTARLLPGAPQQPPKARTGISKPYNVKQIKTTNAQEAEAAIRCLLEARGGASEEALSAVAPRDLEASSEPEPTPGAAKPETPQAPPLLPRRPPPRVPAIKKPTLRRTGKPLSPEEQFEQQTVHFTIGPPETSVEAPPVVTAPRVPPVPKPRTFQPGKAAERPSHRKPASDEAPPGAGASVPPPLEAPPLVPKVPPRRKKSAPAAFHLQVLQSNSQLLQGLTYNSSDSPSGHPPAAGTVFPQGDFLSTSSATSPDSDGTKAMKPEAAPLLGDYQDPFWNLLHHPKLLNNTWLSKSSDPLDSGTRSPKRDPIDPVSAGASAAKAELPPDHEHKTLGHWVTISDQEKRTALQVFDPLAKT
B7: STX8 (protein, UniProt Q9UNK0 1-236)
chain: MAPDPWFSTYDSTCQIAQEIAEKIQQRNQYERKGEKAPKLTVTIRALLQNLKEKIALLKDLLLRAVSTHQITQLEGDRRQNLLDDLVTRERLLLASFKNEGAEPDLIRSSLMSEEAKRGAPNPWLFEEPEETRGLGFDEIRQQQQKIIQEQDAGLDALSSIISRQKQMGQEIGNELDEQNEIIDDLANLVENTDEKLRNETRRVNMVDRKSASCGMIMVILLLLVAIVVVAVWPTN

The target in one assay is IFT140 wildtype (human) (UniProt Q96RY7). As to the kind of experiment: affinity purification with mass spectrometry.
Take PLEC (from UniProt Q15149 1-4684): the binding result is reported as “binds”.

As to NUDC (from UniProt Q9Y266 1-331), the binding result is given as “binds”.

For POLA1 (from UniProt P09884 1-1462), the binding entry is “binds”.

The next assay has the same target. In words: affinity purification with mass spectrometry. The source holds these as a separate data set.
For B1, the binding entry is “binds”.

Turning to B2, the binding result was “binds”.

As to B3, the binding result is recorded as “binds”.

On to B4, for which the binding entry is given as “binds”.

Turning to B5, the binding entry is listed as “binds”.

In the case of B6, the binding result was “binds”.

B7: the binding entry is reported as “binds”.
